Results taken from article PMC11609542.
Results are given in words; binding and its absence hold for the method and conditions named. In cells and extracts the contact can be indirect. Here binding means that the protein was enriched with, or labelled near, the bait; the list need not be complete.

Chains of the proteins cited; added tags and fusions are not shown.
UniProt Q16531: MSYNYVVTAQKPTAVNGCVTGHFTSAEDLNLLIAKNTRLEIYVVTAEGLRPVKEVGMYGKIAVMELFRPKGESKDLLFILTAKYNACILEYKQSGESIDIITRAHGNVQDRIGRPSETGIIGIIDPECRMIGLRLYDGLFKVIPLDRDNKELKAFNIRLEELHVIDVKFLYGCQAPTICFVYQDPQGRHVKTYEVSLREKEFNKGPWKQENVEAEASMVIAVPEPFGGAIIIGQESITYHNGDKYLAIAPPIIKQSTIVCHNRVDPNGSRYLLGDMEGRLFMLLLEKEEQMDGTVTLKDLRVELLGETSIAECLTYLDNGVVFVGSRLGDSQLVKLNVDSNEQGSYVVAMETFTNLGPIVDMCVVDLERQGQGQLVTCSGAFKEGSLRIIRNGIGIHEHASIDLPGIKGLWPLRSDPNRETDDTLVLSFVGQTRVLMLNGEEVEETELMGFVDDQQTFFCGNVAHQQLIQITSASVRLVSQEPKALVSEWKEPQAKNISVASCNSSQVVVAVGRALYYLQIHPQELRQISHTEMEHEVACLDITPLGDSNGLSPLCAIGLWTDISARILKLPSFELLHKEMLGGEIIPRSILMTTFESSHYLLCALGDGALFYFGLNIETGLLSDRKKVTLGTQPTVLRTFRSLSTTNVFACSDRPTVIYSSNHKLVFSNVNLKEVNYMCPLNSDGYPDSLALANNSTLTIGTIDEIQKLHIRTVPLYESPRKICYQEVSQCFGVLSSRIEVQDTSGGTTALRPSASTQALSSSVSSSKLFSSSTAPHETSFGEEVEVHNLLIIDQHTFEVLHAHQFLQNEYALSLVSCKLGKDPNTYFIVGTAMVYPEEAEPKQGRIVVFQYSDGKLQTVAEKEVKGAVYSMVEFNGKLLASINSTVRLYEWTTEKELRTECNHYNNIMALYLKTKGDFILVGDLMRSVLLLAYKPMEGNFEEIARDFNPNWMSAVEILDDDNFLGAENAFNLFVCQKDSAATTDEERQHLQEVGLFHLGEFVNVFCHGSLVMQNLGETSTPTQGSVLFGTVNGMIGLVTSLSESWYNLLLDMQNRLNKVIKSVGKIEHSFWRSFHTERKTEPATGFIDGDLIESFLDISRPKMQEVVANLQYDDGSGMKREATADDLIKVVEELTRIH
UniProt Q8TEB1: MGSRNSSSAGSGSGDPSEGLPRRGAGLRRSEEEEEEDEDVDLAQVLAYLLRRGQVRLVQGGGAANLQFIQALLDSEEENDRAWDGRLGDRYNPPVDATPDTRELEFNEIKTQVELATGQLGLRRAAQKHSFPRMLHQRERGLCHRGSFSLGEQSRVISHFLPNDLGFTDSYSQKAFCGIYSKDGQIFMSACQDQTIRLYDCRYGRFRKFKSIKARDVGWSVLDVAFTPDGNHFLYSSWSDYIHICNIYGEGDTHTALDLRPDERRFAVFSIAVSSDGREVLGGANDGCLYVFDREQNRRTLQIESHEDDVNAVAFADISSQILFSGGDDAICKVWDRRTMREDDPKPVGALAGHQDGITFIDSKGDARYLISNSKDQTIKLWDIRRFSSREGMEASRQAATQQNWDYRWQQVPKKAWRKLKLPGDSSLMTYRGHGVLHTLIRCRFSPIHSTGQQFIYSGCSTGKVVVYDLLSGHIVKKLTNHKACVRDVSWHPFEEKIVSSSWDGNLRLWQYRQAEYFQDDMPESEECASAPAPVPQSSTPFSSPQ

B1: mitochondrial chaperone TRAP1 (protein, UniProt Q12931 60-704)
chain: STQTAEDKEEPLHSIISSTESVQGSTSKHEFQAETKKLLDIVARSLYSEKEVFIRELISNASDALEKLRHKLVSDGQALPEMEIHLQTNAEKGTITIQDTGIGMTQEELVSNLGTIARSGSKAFLDALQNQAEASSKIIGQFGVGFYSAFMVADRVEVYSRSAAPGSLGYQWLSDGSGVFEIAEASGVRTGTKIIIHLKSDCKEFSSEARVRDVVTKYSNFVSFPLYLNGRRMNTLQAIWMMDPKDVREWQHEEFYRYVAQAHDKPRYTLHYKTDAPLNIRSIFYVPDMKPSMFDVSRELGSSVALYSRKVLIQTKATDILPKWLRFIRGVVDSEDIPLNLSRELLQESALIRKLRDVLQQRLIKFFIDQSKKDAEKYAKFFEDYGLFMREGIVTATEQEVKEDIAKLLRYESSALPSGQLTSLSEYASRMRAGTRNIYYLCAPNRHLAEHSPYYEAMKKKDTEVLFCFEQFDELTLLHLREFDKKKLISVETDIVVDHYKEEKFEDRSPAAECLSEKETEELMAWMRNVLGSRVTNVKVTLRLDTHPAMVTVLEMGAARHFLRMQQLAKTQEERAQLLQPTLEINPRHALIKKLNQLRASEPGLAQLLVDQIYENAMIAAGLVDDPRAMVGRLNELLVKALERH
B2: splicing factor THRAP3 (protein, UniProt Q9Y2W1 1-955)
chain: MSKTNKSKSGSRSSRSRSASRSRSRSFSKSRSRSRSLSRSRKRRLSSRSRSRSYSPAHNRERNHPRVYQNRDFRGHNRGYRRPYYFRGRNRGFYPWGQYNRGGYGNYRSNWQNYRQAYSPRRGRSRSRSPKRRSPSPRSRSHSRNSDKSSSDRSRRSSSSRSSSNHSRVESSKRKSAKEKKSSSKDSRPSQAAGDNQGDEAKEQTFSGGTSQDTKASESSKPWPDATYGTGSASRASAVSELSPRERSPALKSPLQSVVVRRRSPRPSPVPKPSPPLSSTSQMGSTLPSGAGYQSGTHQGQFDHGSGSLSPSKKSPVGKSPPSTGSTYGSSQKEESAASGGAAYTKRYLEEQKTENGKDKEQKQTNTDKEKIKEKGSFSDTGLGDGKMKSDSFAPKTDSEKPFRGSQSPKRYKLRDDFEKKMADFHKEEMDDQDKDKAKGRKESEFDDEPKFMSKVIGANKNQEEEKSGKWEGLVYAPPGKEKQRKTEELEEESFPERSKKEDRGKRSEGGHRGFVPEKNFRVTAYKAVQEKSSSPPPRKTSESRDKLGAKGDFPTGKSSFSITREAQVNVRMDSFDEDLARPSGLLAQERKLCRDLVHSNKKEQEFRSIFQHIQSAQSQRSPSELFAQHIVTIVHHVKEHHFGSSGMTLHERFTKYLKRGTEQEAAKNKKSPEIHRRIDISPSTFRKHGLAHDEMKSPREPGYKAEGKYKDDPVDLRLDIERRKKHKERDLKRGKSRESVDSRDSSHSRERSAEKTEKTHKGSKKQKKHRRARDRSRSSSSSSQSSHSYKAEEYTEETEEREESTTGFDKSRLGTKDFVGPSERGGGRARGTFQFRARGRGWGRGNYSGNNNNNSNNDFQKRNREEEWDPEYTPKSKKYYLHDDREGEGSDKWVSRGRGRGAFPRGRGRFMFRKSSTSPKWAHDKFSGEEGEIEDDESGTENREEKDNIQPTTE
B3: splicing factor SRSF5 (protein, UniProt Q13243 1-272)
chain: MSGCRVFIGRLNPAAREKDVERFFKGYGRIRDIDLKRGFGFVEFEDPRDADDAVYELDGKELCSERVTIEHARARSRGGRGRGRYSDRFSSRRPRNDRRNAPPVRTENRLIVENLSSRVSWQDLKDFMRQAGEVTFADAHRPKLNEGVVEFASYGDLKNAIEKLSGKEINGRKIKLIEGSKRHSRSRSRSRSRTRSSSRSRSRSRSRSRKSYSRSRSRSRSRSRSKSRSVSRSPVPEKSQKRGSSSRSKSPASVDRQRSRSRSRSRSVDSGN

Assays:
[1] = target: Strep-tagged DDB1 (human) (UniProt Q16531); assay: affinity purification with mass spectrom
[2] = target: Strep-tagged DCAF11 (human) (UniProt Q8TEB1); assay: affinity purification with mass spectrom

Binder | binding [1] | binding [2]
B1 | binds | –
B2 | – | binds
B3 | – | binds
